Data published in doi:10.1101/2024.09.27.615518.
No constants are given. Whether binding was seen depends on the method and setting. For some of these results: Binding seen in cells or lysates may run through a third protein. Some binding calls cover weakened binding; strength is not graded here.

By UniProt entry, the sequences of proteins in these tests, tags left out.
UniProt P07910: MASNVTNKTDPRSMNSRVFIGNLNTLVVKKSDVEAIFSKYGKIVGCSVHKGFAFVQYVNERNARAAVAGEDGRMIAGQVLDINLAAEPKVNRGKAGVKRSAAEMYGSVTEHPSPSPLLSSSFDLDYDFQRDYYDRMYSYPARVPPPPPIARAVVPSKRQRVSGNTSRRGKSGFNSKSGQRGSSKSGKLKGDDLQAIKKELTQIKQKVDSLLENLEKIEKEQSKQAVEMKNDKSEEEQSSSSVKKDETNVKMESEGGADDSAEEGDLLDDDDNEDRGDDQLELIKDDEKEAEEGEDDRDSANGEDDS

B1: HNRNPM (protein, UniProt P52272 1-730)
chain: MAAGVEAAAEVAATEIKMEEESGAPGVPSGNGAPGPKGEGERPAQNEKRKEKNIKRGGNRFEPYANPTKRYRAFITNIPFDVKWQSLKDLVKEKVGEVTYVELLMDAEGKSRGCAVVEFKMEESMKKAAEVLNKHSLSGRPLKVKEDPDGEHARRAMQKVMATTGGMGMGPGGPGMITIPPSILNNPNIPNEIIHALQAGRLGSTVFVANLDYKVGWKKLKEVFSMAGVVVRADILEDKDGKSRGIGTVTFEQSIEAVQAISMFNGQLLFDRPMHVKMDERALPKGDFFPPERPQQLPHGLGGIGMGLGPGGQPIDANHLNKGIGMGNIGPAGMGMEGIGFGINKMGGMEGPFGGGMENMGRFGSGMNMGRINEILSNALKRGEIIAKQGGGGGGGSVPGIERMGPGIDRLGGAGMERMGAGLGHGMDRVGSEIERMGLVMDRMGSVERMGSGIERMGPLGLDHMASSIERMGQTMERIGSGVERMGAGMGFGLERMAAPIDRVGQTIERMGSGVERMGPAIERMGLSMERMVPAGMGAGLERMGPVMDRMATGLERMGANNLERMGLERMGANSLERMGLERMGANSLERMGPAMGPALGAGIERMGLAMGGGGGASFDRAIEMERGNFGGSFAGSFGGAGGHAPGVARKACQIFVRNLPFDFTWKMLKDKFNECGHVLYADIKMENGKSKGCGVVKFESPEVAERACRMMNGMKLSGREIDVRIDRNA
B2: ILF3 (protein, UniProt Q12906 1-894)
chain: MRPMRIFVNDDRHVMAKHSSVYPTQEELEAVQNMVSHTERALKAVSDWIDEQEKGSSEQAESDNMDVPPEDDSKEGAGEQKTEHMTRTLRGVMRVGLVAKGLLLKGDLDLELVLLCKEKPTTALLDKVADNLAIQLAAVTEDKYEILQSVDDAAIVIKNTKEPPLSLTIHLTSPVVREEMEKVLAGETLSVNDPPDVLDRQKCLAALASLRHAKWFQARANGLKSCVIVIRVLRDLCTRVPTWGPLRGWPLELLCEKSIGTANRPMGAGEALRRVLECLASGIVMPDGSGIYDPCEKEATDAIGHLDRQQREDITQSAQHALRLAAFGQLHKVLGMDPLPSKMPKKPKNENPVDYTVQIPPSTTYAITPMKRPMEEDGEEKSPSKKKKKIQKKEEKAEPPQAMNALMRLNQLKPGLQYKLVSQTGPVHAPIFTMSVEVDGNSFEASGPSKKTAKLHVAVKVLQDMGLPTGAEGRDSSKGEDSAEETEAKPAVVAPAPVVEAVSTPSAAFPSDATAEQGPILTKHGKNPVMELNEKRRGLKYELISETGGSHDKRFVMEVEVDGQKFQGAGSNKKVAKAYAALAALEKLFPDTPLALDANKKKRAPVPVRGGPKFAAKPHNPGFGMGGPMHNEVPPPPNLRGRGRGGSIRGRGRGRGFGGANHGGYMNAGAGYGSYGYGGNSATAGYSQFYSNGGHSGNASGGGGGGGGGSSGYGSYYQGDNYNSPVPPKHAGKKQPHGGQQKPSYGSGYQSHQGQQQSYNQSPYSNYGPPQGKQKGYNHGQGSYSYSNSYNSPGGGGGSDYNYESKFNYSGSGGRSGGNSYGSGGASYNPGSHGGYGGGSGGGSSYQGKQGGYSQSNYNSPGSGQNYSGPPSSYQSSQGGYGRNADHSMNYQYR

Tests used:
[1] = target: HNRNPC (human (endogenous in HEK293T, HepG2, A431)) (UniProt P07910); assay: sequential immunoprecipitation irCLIP
[2] = target: HNRNPC (human (endogenous in HEK293T, HepG2, A431)) (UniProt P07910); assay: co-IP
[3] = target: T1, HNRNPM (human (endogenous in HEK293T)) (UniProt P52272); assay: co-IP
T1 sequence: B1 chain

Row | Binder | binding [1] | binding [2] | binding [3]
1 | B1 | binds | binds | 
2 | B2 |  | binds | binds
